According to article PMC12670160, “A drug-repurposing screen of FDA- and EMA-approved drugs identifies two NF-κB inhibitors active against eumycetoma” (Journal of Antimicrobial Chemotherapy, 2025):
Where a name gives a salt, the structure may show the parent alone. The whole screen tested about 5,300 compounds, of which about 130 (2.5%) showed an effect of 50% or more. The list shows a part of the results. Numbered stars: 1 amine (or outer) side, 2 acyl side, 3 side chain; on linkers, the order of the positions; unused ones are H or OH. Bridge positions count the residues as written; N and C are the ends. Square brackets hold non-standard residues; d marks the D form. Peptide text beside a SMILES is read from it. * marks the point of attachment. X2 = NC1=N[C@@H](O)CC([C@H](N[*:1])C(=O)[*:2])N1; ΔAla(Z-3-ureido) = NC(=O)N/C=C(\N)C(=O)O; β3hOrn = NCCC[C@H](N)CC(=O)*; Dap = NC[C@H](N)C(=O)O

Test system: M. mycetomatis strain mm55
Settings: primary screen, metabolic activity vs growth control; 96 h, 2 µM; inhibitor

Structure (SMILES)	% viability [%]
CN(C)[C@@H]1C(=O)C(C(N)=O)C(=O)[C@@]2(O)C(=O)C3C(=O)c4c(O)ccc(Cl)c4[C@@H](O)[C@H]3C[C@@H]12 (some centres unmarked) [ONC0000432, demeclocycline hydrochloride]	77.24
Clc1cccc(SC2CCNCC2)n1 [ONC0001513, anpirtoline]	76.41
CC(C)(CO)CCCCCCC(C)(C)CO [ONC0002138, gemcadiol]	81.24
CC(=O)OCC1=C(C(=O)O)N2C(=O)[C@@H](NC(=O)Cc3cccs3)[C@H]2SC1 [ONC0003428, cephalothin]	60.13
Clc1ccc(C(Cn2ccnc2)OCc2csc3c(Cl)cccc23)c(Cl)c1 (centres unmarked) [ONC0005215, sertaconazole nitrate]	82
COC(=O)c1csc(C(=O)c2c[nH]c3ccccc23)n1 [ONC0000157, ite]	92.52
CCOc1ccc(NC(=O)CC(C)O)cc1 (centres unmarked) [ONC0005306, bucetin]	90.99
C=CCn1c(=O)c2cnc(Nc3ccc(N4CCN(C)CC4)cc3)nc2n1-c1cccc(C(C)(C)O)n1 [ONC0004872, mk1775]	112.3
Cc1nc2n(c(=O)c1CCN1CCC(c3noc4cc(F)ccc34)CC1)CCCC2O (centres unmarked) [ONC0004214, paliperidone]	70.62
CCN(CC)CCNC(=O)COc1ccc(OC)cc1 [ONC0000676, mefexamide hydrochloride]	93.51
COc1ccc(-c2nc3ccc(C4=NNC(=O)CC4C)cc3[nH]2)cc1 (centres unmarked) [ONC0004871, pimobendan vetmedin]	86.97
CC(C)Nc1nc2cc(Cl)c(Cl)cc2n1[C@H]1O[C@@H](CO)[C@H](O)[C@@H]1O [ONC0002109, maribavir]	67.92
CN(CCOc1ccc(C[C@H](Nc2ccccc2C(=O)c2ccccc2)C(=O)O)cc1)c1ccccn1 [ONC0002597, gw1929]	67.67
C[C@H]1[C@H](OC(=O)CCC(=O)O)O[C@@H]2O[C@@]3(C)CC[C@H]4[C@H](C)CC[C@@H]1[C@@]24OO3 [ONC0003919, artesunate]	64.01
O=C(O)CCC(=O)C(=O)O [ONC0003748, 2oxoglutaricacid]	95.08
COc1ccc2[nH]cc(C3=CCNCC3)c2c1 [ONC0001150, ru 24969]	88.9
C[n+]1ccccc1/C=N/O [ONC0004059, pralidoxime mesylate]	102.4
CCC(C)n1ncn(-c2ccc(N3CCN(c4ccc(OCC5COC(Cn6cncn6)(c6ccc(Cl)cc6Cl)O5)cc4)CC3)cc2)c1=O (centres unmarked) [Itraconazole hydrochloride]	4.9
Cc1cccc(Nc2ccccc2C(=O)O)c1C [ONC0000695, mefenamic acid]	132.3
CCOc1cc(N)c(Cl)cc1C(=O)NCC1CN(Cc2ccc(F)cc2)CCO1 (centres unmarked) [ONC0004914, mosapride citrate]	102.1
NC(=O)CN1CC[C@@H](NC(=O)[C@@H]2CCCN2)C1=O [ONC0001897, paopa]	92.79

13 entries from above, in markdown:

| Structure (SMILES) | % viability [%] |
| --- | --- |
| Clc1cccc(SC2CCNCC2)n1 [ONC0001513, anpirtoline] | 76.41 |
| CC(C)(CO)CCCCCCC(C)(C)CO [ONC0002138, gemcadiol] | 81.24 |
| CC(=O)OCC1=C(C(=O)O)N2C(=O)[C@@H](NC(=O)Cc3cccs3)[C@H]2SC1 [ONC0003428, cephalothin] | 60.13 |
| Clc1ccc(C(Cn2ccnc2)OCc2csc3c(Cl)cccc23)c(Cl)c1 (centres unmarked) [ONC0005215, sertaconazole nitrate] | 82 |
| COC(=O)c1csc(C(=O)c2c[nH]c3ccccc23)n1 [ONC0000157, ite] | 92.52 |
| CCOc1ccc(NC(=O)CC(C)O)cc1 (centres unmarked) [ONC0005306, bucetin] | 90.99 |
| C=CCn1c(=O)c2cnc(Nc3ccc(N4CCN(C)CC4)cc3)nc2n1-c1cccc(C(C)(C)O)n1 [ONC0004872, mk1775] | 112.3 |
| Cc1nc2n(c(=O)c1CCN1CCC(c3noc4cc(F)ccc34)CC1)CCCC2O (centres unmarked) [ONC0004214, paliperidone] | 70.62 |
| CCN(CC)CCNC(=O)COc1ccc(OC)cc1 [ONC0000676, mefexamide hydrochloride] | 93.51 |
| COc1ccc(-c2nc3ccc(C4=NNC(=O)CC4C)cc3[nH]2)cc1 (centres unmarked) [ONC0004871, pimobendan vetmedin] | 86.97 |
| CC(C)Nc1nc2cc(Cl)c(Cl)cc2n1[C@H]1O[C@@H](CO)[C@H](O)[C@@H]1O [ONC0002109, maribavir] | 67.92 |
| CN(CCOc1ccc(C[C@H](Nc2ccccc2C(=O)c2ccccc2)C(=O)O)cc1)c1ccccn1 [ONC0002597, gw1929] | 67.67 |
| C[C@H]1[C@H](OC(=O)CCC(=O)O)O[C@@H]2O[C@@]3(C)CC[C@H]4[C@H](C)CC[C@@H]1[C@@]24OO3 [ONC0003919, artesunate] | 64.01 |

The listing continues:

Structure (SMILES)	% viability [%]
O/N=C/c1cc[n+](COC[n+]2ccc(/C=N/O)cc2)cc1 [ONC0003820, obidoxime]	65.57
[H]/N=C(/N)N/C(=N/[H])NCCc1ccccc1 [ONC0000619, phenformin hydrochloride]	104.4
CC(C)(C(=O)NCC(F)(F)C(F)(F)F)C(=O)N[C@@H]1C(=O)Nc2ccccc2-c2ccccc21 [ONC0000838, ro4929097]	74.79
CCN(CC)CCOc1ccccc1C(=O)CCc1ccccc1 [ONC0003543, etafenone]	110.8
CCOC(=O)c1ncc2[nH]c3ccc(OCc4ccccc4)cc3c2c1COC [ONC0002534, zk93423]	55.97
Cc1cc(C)c(CNC(=O)c2cc(-c3ccc(N4CCN(C)CC4)nc3)cc3c2c(C)cn3C(C)C)c(=O)[nH]1 [ONC0000860, gsk503]	78.28
CNCCCN1c2ccccc2CCc2ccccc21 [ONC0000421, desipramine hydrochloride]	61.2
O=C1c2c(O)cc(O)cc2O[C@H](c2cc(O)c(O)c(O)c2)[C@H]1O [ONC0000951, dihydromyricetin]	59.72
NP(N)(=O)NC(=O)c1ccc(F)cc1 [ONC0003584, flurofamide]	116.4
Cc1ccsc1C(=CCCN1CCC[C@@H](C(=O)O)C1)c1sccc1C [ONC0002021, tiagabinehcl]	76.03
Cc1ccc(-c2c(-c3nn(C)c4ncnc(N5CC[C@H](N6CCCCC6)C5)c34)cnn2C)cc1 [pf4981517]	79.1
CC[n+]1c(-c2ccccc2)c2cc(N)ccc2c2ccc(N)cc21 [ONC0002749, homidium bromide]	95.42
O=C1OC(CN2CCOCC2)CN1/N=C/c1ccc([N+](=O)[O-])o1 (centres unmarked) [ONC0004035, furaltadone]	70.86
CCCC(=O)OCOC(=O)C1=C(C)NC(C)=C(C(=O)OC)C1c1cccc(Cl)c1Cl (centres unmarked) [ONC0004887, clevidipine butyrate]	116
CCN(CC)CCCCN1c2ccccc2Oc2ccc(Cl)cc21 [ONC0003148, 10debc]	124.6
NCCC[C@H](N)CC(=O)N[C@H]1CNC(=O)[C@H]([C@H]2C[C@H](O)NC(N)=N2)NC(=O)/C(=C/NC(N)=O)NC(=O)[C@H](CO)NC(=O)[C@H](CO)NC1=O [ONC0002739, viomycin] (β3hOrn-[Dap]SS[ΔAla(Z-3-ureido)][X2]; lactam 1-C)	97.19
CC12CCC3C(=CCc4cc(O)ccc43)C1CCC2=O (centres unmarked) [ONC0005444, equilin]	126.8
Nc1nc2c(c(=O)[nH]1)N(C=O)C(CNc1ccc(C(=O)N[C@@H](CCC(=O)O)C(=O)O)cc1)CN2 (some centres unmarked) [ONC0000399, leucovorin calcium]	60.67
CCCCCCCCCCC(CO)CCCCCCCC (centres unmarked) [ONC0003687, 2octyldodecan1ol]	64.53
CC(=O)c1ccc2c(c1)[C@H](NC(=O)c1ccc(F)c(Cl)c1)[C@H](O)C(C)(C)O2 [ONC0002408, tonabersat]	91.32
NC(CO)C(=O)NNCc1ccc(O)c(O)c1O (centres unmarked) [ONC0003257, benserazide hydrochloride]	90.76

Structure (SMILES)	% viability [%]
Cc1cccc(C(=O)NCN2CCN(c3ccccc3C#N)CC2)c1 [ONC0000842, pd168077]	78.64
CN(C)CCCN1c2ccccc2CCc2ccccc21 [ONC0000392, imipramine hydrochloride]	71.21
C[C@H]1COc2c(N3CCN(C)CC3)c(F)cc3c(=O)c(C(=O)O)cn1c23 [ONC0004298, levofloxacin]	65.49
CCc1cccc(CC)c1NC(=O)N1Cc2n[nH]c(NC(=O)c3ccc(N4CCN(C)CC4)cc3)c2C1 [ONC0004904, pha680632]	99.99
Fc1ccc([C@@H]2CCNC[C@H]2COc2ccc3c(c2)OCO3)cc1 [ONC0002311, paroxetine hydrochloride]	122.1
CN1CCN(c2ccc(OC(F)(F)F)c(Nc3ncc4c(n3)-c3c(c(C(N)=O)nn3CCO)CC4)c2)CC1 [ONC0001025, nms1286937]	100.9
CN(C/C=C/C#CC(C)(C)C)Cc1cccc2ccccc12 [ONC0004029, terbinafine hydrochloride]	75.14
O=c1[nH]cnc2c1ncn2[C@H]1CC[C@@H](CO)O1 [ONC0004781, didanosine videx]	107
CC(=O)OCC(=O)[C@@]1(O)[C@@H](C)CC2C3CCC4=CC(=O)C=C[C@]4(C)[C@@]3(F)[C@@H](O)C[C@@]21C (some centres unmarked) [ONC0004050, betamethasone acetate]	111.9
O=C(O)CCC(CP(=O)(O)O)C(=O)O (centres unmarked) [ONC0002514, pmpa]	59.56
Cc1cc(O)c2c(c1)C(=O)c1cc(O)cc(O)c1C2=O [ONC0004997, emodin]	57.84
Clc1ccc(Nc2nnc(Cc3ccncc3)c3ccccc23)cc1 [ONC0001243, vatalanib]	71.62
Cn1cc(-c2ccc3nnc(Sc4ccc5ncccc5c4)n3n2)cn1 [ONC0004359, sgx523]	107.9
C[C@@H]1CN(Cc2ncccn2)C[C@H]1c1nc2c(cnn2C2CCOCC2)c(=O)[nH]1 [ONC0001884, pf04447943]	99.81
C/C=C1\[C@H]2C=C(C)C[C@]1(N)c1ccc(=O)[nH]c1C2 [ONC0001211, huperzine a]	89.91
CN1CCN(C2CCN(C(=O)Nc3cc(Oc4ccc(NC(=O)C5(C(=O)Nc6ccc(F)cc6)CC5)c(F)c4)ccn3)CC2)CC1 [ONC0004478, golvatinib e7050]	152.8
FC(F)(F)c1ccc(Nc2ncnc3cc(-c4ncccc4C(F)(F)F)ccc23)cc1 [ONC0001942, mk2295]	91.37
CN(C)C(=O)Oc1cccc([N+](C)(C)C)c1 [ONC0000395, neostigmine bromide]	57.87
O=C(Oc1cccc2cccnc12)c1ccccc1 [ONC0003987, benzoxiquine]	75.23
CCOC(=O)[C@H](CCc1ccccc1)N[C@@H](C)C(=O)N1Cc2cc(OC)c(OC)cc2C[C@H]1C(=O)O [ONC0002079, moexipril hydrochloride]	73.52
